The match of structure and compound is tentative.

Format in all cases: biochemical
The target in assay [1] is human AChE (acetylcholinesterase) (Homo sapiens, UniProt P22303). Put plainly: Ellman assay, […] nm. To be noted: 100 uM acetylthiocholine, 300 uM DTNB, pH 7.5. On the technique in general: In Ellman's method for cholinesterases, released thiocholine reacts with DTNB.
In assay [2] the target is human carboxylesterase 2 (CES2, hCES2) (Homo sapiens, UniProt O00748). Put plainly: competition with 4-nitrophenyl acetate, […] nm. To be noted: 100 uM 4-nitrophenyl acetate, pH 7.5.
For assay [3], the target named is human carboxylesterase 1 (CES1, hCES1) (Homo sapiens, UniProt P23141). Put plainly: competition with 4-nitrophenyl acetate, […] nm. Conditions: 200 uM 4-nitrophenyl acetate, pH 7.5.

For the compound `OB(O)c1cc(Br)cc(OCc2ccccc2)c1`, the inhibitory constant (Ki) was found to be 14000 nM in assay [1], 2.2 nM in assay [2] and 1.1 nM in assay [3].

For orientation: Ki means a measure of affinity in units of concentration, obtained from inhibition or displacement. Read a low Ki as a stronger hold on the target.

The values are drawn from paper doi:10.1101/161430v2 (biorxiv, 2019).
